# PubChem BioAssay AID686938 | Drosophila RNAi Screening Center | 2013
# Screen: 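Fly genes required for calcium entry once internal stores are emptied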 (primary screen)
# Cell system: Drosophila S2R+ cells
# Knock-down reagent: long dsRNA against Drosophila genes, about 0.25 µg dsRNA per well, roughly 10,000 cells
# Timing: 5 days of knock-down before the calcium assay
# Conditions: thapsigargin (SERCA pump blocker) to empty calcium stores; entry signal taken 4 min after adding it
# Measured: 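Duplicate raw fluo-4 intensities per well from a plate reader, at rest and four minutes after thapsigargin emptied calcium stores; entry-to-rest ratio filled for only some wells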
# Direction: calcium entry signal: higher = stronger calcium signal after store depletion; resting calcium signal: higher = higher resting calcium signal
# Hit rule: 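Called when the plate z-score of the entry-to-rest ratio, mean of duplicates, falls below −3; wells with low overall dye signal (Fmax z below −2) or more than five off-targets excluded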
# Meaning of the calls: active = strongly reduced calcium entry; inactive = no strong reduction
# The deposit covers about 23,000 reagents; this is a random part of those that have a named target and a result. Over the whole deposit, 75 (0.33%) got an active call. 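Raw plate signals without normalisation; calls rest on plate z-scores that were not deposited; ratio present for only 364 wells.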 A plus sign joins genes that one reagent is predicted to hit. Not stated in the record: the dose of the treatment.
"calcium entry signal, replicate 1 (fluorescence units)","calcium entry signal, replicate 2 (fluorescence units)","resting calcium signal, replicate 1 (fluorescence units)","resting calcium signal, replicate 2 (fluorescence units)",outcome,gene knocked down,DRSC id
2.82e7,2.94e7,1.41e7,1.28e7,inactive,Polr3K + Tcs1,DRSC05988
4.97e7,3.38e7,2.08e7,1.57e7,inactive,CG8997,DRSC01900
4.23e7,4.34e7,2.13e7,1.83e7,inactive,Slmap,DRSC03799
4.35e7,2.85e7,2.09e7,1.53e7,inactive,Ugt37A3,DRSC15937
3.34e7,4.80e7,1.63e7,2.25e7,inactive,CG13876,DRSC08346
4.37e7,6.24e7,2.12e7,2.60e7,inactive,CG31848,DRSC01309
2.56e7,1.75e7,1.29e7,1.12e7,inactive,RyR,DRSC07543
3.04e7,2.77e7,2.06e7,1.41e7,inactive,CG14957,DRSC08416
4.79e7,2.91e7,2.53e7,1.35e7,inactive,Ir94d,DRSC21568
4.51e7,,2.45e7,,inactive,IntS14,DRSC00668
3.32e7,3.49e7,1.58e7,1.62e7,inactive,Vlet,DRSC19845
4.35e7,3.36e7,1.93e7,1.34e7,inactive,Gpo3,DRSC01978
3.40e7,,1.67e7,,inactive,CG31673,DRSC03207

3 consecutive records already listed:
"calcium entry signal, replicate 1 (fluorescence units)","calcium entry signal, replicate 2 (fluorescence units)","resting calcium signal, replicate 1 (fluorescence units)","resting calcium signal, replicate 2 (fluorescence units)",outcome,gene knocked down,DRSC id
3.34e7,4.80e7,1.63e7,2.25e7,inactive,CG13876,DRSC08346
4.37e7,6.24e7,2.12e7,2.60e7,inactive,CG31848,DRSC01309
2.56e7,1.75e7,1.29e7,1.12e7,inactive,RyR,DRSC07543

Next reagents follow:
"calcium entry signal, replicate 1 (fluorescence units)","calcium entry signal, replicate 2 (fluorescence units)","resting calcium signal, replicate 1 (fluorescence units)","resting calcium signal, replicate 2 (fluorescence units)",outcome,gene knocked down,DRSC id
3.60e7,6.11e7,1.72e7,2.55e7,inactive,veli,DRSC16276
4.26e7,,2.13e7,,inactive,CG3906,DRSC04431
3.41e7,5.13e7,1.75e7,1.91e7,inactive,CR43359,DRSC03744
8.35e6,,8.35e6,,inactive,RpS13,DRSC03419
5.44e7,5.08e7,2.50e7,1.82e7,inactive,CG10694,DRSC14263
3.22e7,3.80e7,1.60e7,1.81e7,inactive,CG11368,DRSC17778
4.57e7,4.21e7,2.17e7,1.91e7,inactive,CR11235,DRSC20480
3.28e7,3.41e7,1.70e7,1.63e7,inactive,Miox,DRSC10747
3.27e7,5.44e7,1.69e7,2.52e7,inactive,Or98b,DRSC16775
3.76e7,4.35e7,1.96e7,1.90e7,inactive,Or98b,DRSC21751
3.46e7,4.41e7,1.44e7,2.09e7,inactive,Dera,DRSC07207
2.51e7,3.07e7,1.23e7,1.42e7,inactive,Dera,DRSC21336
